Reference: patent US6001882A (priority 1997, dated 1999)
At least one read-out could not be matched to a standard name with certainty.

System: neoplastic ("CTL") PBMC
Test: Lymphocyte proliferation (3H-TdR incorporation), ConA-stimulated neoplastic PBMC from subject having CTCL
Assay type: cell-based, human
Conditions: not illuminated; benzyl alcohol vehicle itself inhibitory at highest concentrations; read-out: IC50 of ConA-induced cell proliferation
Source text: In two of the types of lymphocytes, the mitogen, ConA, was used to induce proliferation, as described (Fox et al., 1993, Cell. Immunol. 150:45-58). The third type of lymphocytes used in this example proliferated actively in vitro without the need for mitogenic stimulation. The three types of lymphocytes which were used in this example were: PBMC obtained from a normal human subject and stimulated with ConA; PBMC, including malignant CD4+ T-lymphocytes, obtained from a human subject having CTCL and stimulated with ConA; and PBMC obtained from a normal human subject, which PBMC were exposed to Epstein-Barr virus (EBV) after being obtained from the subject, to produce transformed lymphocytes. It is known that EBV-transformed B-lymphocytes proliferate actively in vitro (Polack, 1996, Proc. Natl. Acad. Sci. U.S.A. 93:10411-10416; Longnecker, 1994, Leukemia 8:546-550).
Peripheral blood mononuclear cells (PBMC) were obtained by separating them from whole blood, using Ficoll-Paque separation techniques and media (Boyum, 1964, Nature 793-794). […]
Lymphocyte proliferation was assessed by measuring the extent of incorporation of ^3 H-TdR into newly synthesized DNA within the cells at the end of the seventy-two hour incubation period, as described (Fox, 1993, Cell. Immunol. 150:45-58).

With `Cc1cc(O)c2c(=O)c3c(O)cc(O)c4c5c(O)cc(O)c6c(=O)c7c(O)cc(C)c8c1c2c(c34)c(c78)c65` [hypericin, 1,3,4,6,8,13-Hexahydroxy-10,11,dimethyl-phenanthro[1,10,9,8,-opqra]perylene-7,14-dione] the IC50 was 34 µM.
